Assay results as given in patent publication US7132427B2, “Quinazolines and uses thereof” (Ariad Pharmaceuticals, Inc., priority 2001, dated 2006).
At least one structure is not confirmed: it was looked up by name or label, or the drawing left a doubt.

Experiment: Hydroxyapatite assay (hydroxyapatite adsorption chromatography, bone-targeting potential)
Format: physicochemical
Conditions: K=(retention time-void time)/void, corrected using two reference compounds; TSK-Gel HA 1000 HPLC column; linear gradient 10 mM to 500 mM sodium phosphate, 0.15 N NaCl, pH 6.8
Experimental: Hydroxyapatite is the principal mineral component of bone. Hydroxyapatite adsorption chromatography is used as an assay to evaluate the bone-targeting potential of both individual bone-targeting moieties (“monomers”) and of pharmaceuticals incorporating bone-targeting groups.
Method: The rentention time of a test compound is measured using a linear gradient from 10 mM sodium phosphate, 0.15 N NaCl, pH=6.8 to 500 mM sodium phosphate, 0.15 N NaCl, […] on a TSK-Gel HA 1000 high pressure liquid chromatography column (7.5 mm×75 mm). The rentention time of the compound is expressed in terms of K=(retention time-void time)/void. This K value is corrected using two reference compounds to correct from inter-column and inter-system variation to obtain a K′ value.
Reference Compounds: K′ values were determined for known bone targeted compounds, the bisphosphonate, alendronate and tetracycline.

CN(C)[C@@H]1C(O)=C(C(N)=O)C(=O)[C@@]2(O)C(O)=C3C(=O)c4c(O)cccc4[C@@](C)(O)[C@H]3C[C@@H]12 [tetracycline]
K′ value: 2.0
